At least one structure is not confirmed: it was looked up by name or label, or the drawing left a doubt.
System: intracellular dGTP in CLL primary cells
Assay: Measurement of intracellular dGTP levels (DNA polymerase assay)
Type: cell-based, human
Conditions: fludarabine 1 μg/ml alone or with forodesine 2 μM and dGuo 10 μM
Description: 15×10^6 of CLL primary cells were incubated with or without forodesine (2 μM) and dGuo (10 μM) or fludarabine (1 μg/ml) for 18 hours and the nucleotides were extracted with 60% methanol and intracellular dGTP levels were quantified by DNA polymerase assay as modified by Sherman and Fyfe (Sherman et al., Anal Biochem, 180(2), 222-226 (1989)). Data were expressed in fold induction of intracellular dGTP levels respect of control cells. In parallel, cell viability at 24 and 48 hours were also evaluated.

Nc1nc(F)nc2c1ncn2[C@@H]1O[C@H](CO)[C@@H](O)[C@@H]1O [Fludarabine]
effect on intracellular dGTP increase: did not induce an increase in dGTP levels

From patent publication US11110092B2, “Methods of treating hematologic cancers” (BIOCRYST PHARMACEUTICALS, INC, priority 2007, dated 2021)
